Laboratory results taken from patent US9185910B2, “Amide compound” (Sumitomo Chemical Company, Limited, priority 2012, dated 2015).
Some of these results come from one statement about several compounds together. At least one structure is not confirmed: it was looked up by name or label, or the drawing left a doubt.

Assays:
Assay type in all cases: in vivo
[1] = tested on: Adoxophyes orana fasciata; assay: Test Example 7: spray on apple tree, Adoxophyes orana fasciata; conditions: 500 ppm, 20 mL/cup sprayed on apple tree, first-instar, after 7 days
[2] = tested on: Culex pipiens pallens; assay: Test Example 10: larvae in treated water, Culex pipiens pallens; conditions: active ingredient concentration 3.5 ppm in water, last-instar larvae, one day later
[3] = tested on: Plutella xylostella; assay: Test Example 6: spray on cabbage, Plutella xylostella larvae; conditions: 500 ppm, 20 mL/cup sprayed on cabbage, second instar larvae, 25° C. for 5 days

Compound	Death rate (%) [1] [%]	Death rate (%) [2] [%]	Death rate (%) [3] [%]
CCS(=O)(=O)c1cc(NC(=O)OC)cnc1C(=O)N(C)c1ccc(SC(F)(F)F)cc1 [compound 119]	≥ 90	≥ 95	–
CCS(=O)(=O)c1cccnc1C(=O)Nc1ccc(C(F)(F)F)nc1 [compound 22]	–	–	≥ 80
CCS(=O)(=O)c1cc(C(=O)NC)cnc1C(=O)N(C)c1ccc(SC(F)(F)F)cc1 [compound 128]	–	≥ 95	–
CCSc1cc(Cl)cnc1C(=O)N(C)c1ccc(C(F)(F)F)cn1 [compound 132]	–	–	≥ 80
CCS(=O)(=O)c1cc(N(C)C)cnc1C(=O)N(C)c1ccc(SC(F)(F)F)cc1 [compound 122]	≥ 90	–	–
CCSc1cccnc1C(=O)N(C)c1ccc(C(F)(F)C(F)(F)F)c(Cl)n1 [compound 110]	≥ 90	≥ 95	≥ 80
CCS(=O)(=O)c1cccnc1C(=O)Nc1ccc(C(F)(F)F)cn1 [compound 3]	≥ 90	–	≥ 80
CCSc1cccnc1C(=O)Nc1ccc(C(F)(F)F)nc1 [compound 20]	–	≥ 95	–
CCS(=O)(=O)c1cccnc1C(=O)N(C)c1ccc(C(F)(F)C(F)(F)F)c(Cl)n1 [compound 112]	≥ 90	≥ 95	≥ 80
CCSc1cc(Cl)cnc1C(=O)N(C)c1ccc(C(F)(F)F)cc1 [compound 131]	–	≥ 95	–
CCS(=O)(=O)c1cccnc1C(=O)N(CC(F)(F)C(F)F)c1ccc(C(F)(F)C(F)(F)F)cn1 [compound 85]	≥ 90	–	≥ 80
CC[S+]([O-])c1cc(C(F)(F)F)cnc1C(=O)N(C)c1ccc(SC(F)(F)F)cc1 (stereo not shown) [compound 109]	–	–	≥ 80
